T1: NcsA with a C-terminal StrepII-tag (Hfx. volcanii HVO_0580, Tuc1/Ncs6 homolog) (Haloferax volcanii) (UniProt D4GSH6)
T1 sequence: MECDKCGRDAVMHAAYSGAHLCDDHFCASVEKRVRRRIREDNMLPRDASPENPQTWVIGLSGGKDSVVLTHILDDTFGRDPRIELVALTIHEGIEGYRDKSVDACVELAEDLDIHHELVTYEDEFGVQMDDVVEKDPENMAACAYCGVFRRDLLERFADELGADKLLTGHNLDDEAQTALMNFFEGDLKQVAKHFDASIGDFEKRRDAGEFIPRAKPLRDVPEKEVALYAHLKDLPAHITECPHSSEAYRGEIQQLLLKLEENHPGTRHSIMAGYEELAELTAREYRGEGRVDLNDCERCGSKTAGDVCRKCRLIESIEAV

B1: UbaA (ubiquitin-activating E1 enzyme homolog of archaea) (enzyme, UniProt D4GSF3 1-270)
chain: MTLSLDATQLDRYSRHIIMDEVGPEGQGRLLSSRVVVVGAGGLGAPAIQYLAAVGVGELVVVDDDVVERSNLQRQVVHCDDDVGTPKAESAAAFVRGLNPDVSVEPVEARVDKSNVHEVVAGSDVVVDASDNFPTRYLLNDVCRFEGIPLVHGAIYKFEGQATTLVPDGPCYRCLFPEAPEPGTVPDCATTGVLGVLPGTVGCIQATEAMKLLLDEGEALDGRLLFYDAMDMTFETVPYRTNPDCPVCGEGGVDSIEDIDYVESCAISLD
B2: N-terminal Flag-tagged SAMP1 (small archaeal modifier protein 1) (protein, UniProt D4GUF6 1-87)
chain: MEWKLFADLAEVAGSRTVRVDVDGDATVGDALDALVGAHPALESRVFGDDGELYDHINVLRNGEAAALGEATAAGDELALFPPVSGG
B3: N-terminal Flag-tagged SAMP2 (small archaeal modifier protein 2) (protein, UniProt D4GZE7 1-66)
chain: MNVTVEVVGEETSEVAVDDDGTYADLVRAVDLSPHEVTVLVDGRPVPEDQSVEVDRVKVLRLIKGG
B4: Proteasome-activating nucleotidase A/1 (PAN-A/1) (protein, UniProt D4GUJ7 1-406)
chain: MMTDTVDDVDLPYDKDSASQQEKITALQERLEVLETQNEEMRDKLLDTNAENNKYQQKLERLTHENKKLKQSPLFVATVQEITDEGVIIKQHGNNQEALTEVTDEMREELEPDARVAVNNSLSIVKRLDKETDVRARVMQVEHSPDVTYEDIGGLEEQMQEVRETVEMPLDRPEMFAEVGIDPPSGVLLYGPPGTGKTMLAKAVANQTNASFIKMAGSELVHKFIGEGAKLVRDLFEVARENEPAVIFIDEIDAIASKRTDSKTSGDAEVQRTMMQLLAEMDGFDERGNIRIIAATNRFDMLDPAILRPGRFDRLIEVPKPNEDGREIIFQIHTRKMNVSDDVDFVELAEMADNASGADIKAVCTEAGMFAIRDDRTEIFMQDFVDAWEKIQQEASDETEVSRAFA

From paper PMC4048286 come the findings set out here.

No constants are given. Whether binding was seen depends on the method and setting. Binding seen in cells or lysates may run through a third protein. Some results given as binding are weak or reduced against the parent protein; the word gives no strength. Where a sequence is shown, tags or fusion partners need not be part of it.

This experiment concerns the target T1, NcsA with a C-terminal StrepII-tag (Hfx. volcanii HVO_0580, Tuc1/Ncs6 homolog) (Haloferax volcanii). The experiment is described as follows: pull-down; NcsA-StrepII held on Strep-Tactin from soluble extract of Hfx. volcanii strains (ΔncsA, H26, ΔubaA), Tris-salt buffer (20 mM Tris, 2 M NaCl, pH 8.0), eluted with 2.5 mM D-desthiobiotin; fractions analysed by reducing SDS-PAGE and immunoblot (α-Flag, α-StrepII, α-UbaA, α-PAN-A/1) or Coomassie stain; 1 L or 50 ml cultures. (In western blotting, separated proteins are transferred to a membrane and probed.)
As for B1, the binding entry is reported as “binds”.
On to B2, for which the binding entry was “no binding”.
To B3 belongs “binds”; to B4, “binds”.
